This note sets out measurements from the supplement of paper PMC12819154, “High-throughput peptide-centric local stability assay extends protein–ligand identification to membrane proteins, tissues and bacteria” (Nature Structural & Molecular Biology, 2025).

Chains of the proteins cited; added tags and fusions are not shown. Lines headed by an entry give the natural chain unless they say otherwise; changes in a name come on top.
UniProt Q32NC0: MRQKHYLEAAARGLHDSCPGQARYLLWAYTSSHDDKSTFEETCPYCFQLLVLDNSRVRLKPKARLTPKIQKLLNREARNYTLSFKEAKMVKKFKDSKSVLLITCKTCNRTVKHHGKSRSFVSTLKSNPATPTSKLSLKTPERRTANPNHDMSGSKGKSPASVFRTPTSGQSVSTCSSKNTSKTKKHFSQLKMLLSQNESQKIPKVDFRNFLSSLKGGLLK
UniProt Q15758: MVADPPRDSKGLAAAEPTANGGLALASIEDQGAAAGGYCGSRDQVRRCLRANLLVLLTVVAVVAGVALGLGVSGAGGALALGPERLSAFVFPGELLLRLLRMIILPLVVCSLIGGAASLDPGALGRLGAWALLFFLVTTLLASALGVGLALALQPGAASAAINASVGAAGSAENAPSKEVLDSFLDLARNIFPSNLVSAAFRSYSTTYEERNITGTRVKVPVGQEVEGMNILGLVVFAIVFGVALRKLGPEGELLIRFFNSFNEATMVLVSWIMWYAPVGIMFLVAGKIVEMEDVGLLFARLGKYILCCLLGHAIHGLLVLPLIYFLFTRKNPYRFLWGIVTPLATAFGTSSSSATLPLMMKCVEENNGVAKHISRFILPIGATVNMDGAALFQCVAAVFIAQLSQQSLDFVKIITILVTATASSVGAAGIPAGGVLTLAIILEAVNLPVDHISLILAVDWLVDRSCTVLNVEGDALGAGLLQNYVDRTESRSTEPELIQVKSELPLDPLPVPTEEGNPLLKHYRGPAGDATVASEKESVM
UniProt Q460N5, whole entry: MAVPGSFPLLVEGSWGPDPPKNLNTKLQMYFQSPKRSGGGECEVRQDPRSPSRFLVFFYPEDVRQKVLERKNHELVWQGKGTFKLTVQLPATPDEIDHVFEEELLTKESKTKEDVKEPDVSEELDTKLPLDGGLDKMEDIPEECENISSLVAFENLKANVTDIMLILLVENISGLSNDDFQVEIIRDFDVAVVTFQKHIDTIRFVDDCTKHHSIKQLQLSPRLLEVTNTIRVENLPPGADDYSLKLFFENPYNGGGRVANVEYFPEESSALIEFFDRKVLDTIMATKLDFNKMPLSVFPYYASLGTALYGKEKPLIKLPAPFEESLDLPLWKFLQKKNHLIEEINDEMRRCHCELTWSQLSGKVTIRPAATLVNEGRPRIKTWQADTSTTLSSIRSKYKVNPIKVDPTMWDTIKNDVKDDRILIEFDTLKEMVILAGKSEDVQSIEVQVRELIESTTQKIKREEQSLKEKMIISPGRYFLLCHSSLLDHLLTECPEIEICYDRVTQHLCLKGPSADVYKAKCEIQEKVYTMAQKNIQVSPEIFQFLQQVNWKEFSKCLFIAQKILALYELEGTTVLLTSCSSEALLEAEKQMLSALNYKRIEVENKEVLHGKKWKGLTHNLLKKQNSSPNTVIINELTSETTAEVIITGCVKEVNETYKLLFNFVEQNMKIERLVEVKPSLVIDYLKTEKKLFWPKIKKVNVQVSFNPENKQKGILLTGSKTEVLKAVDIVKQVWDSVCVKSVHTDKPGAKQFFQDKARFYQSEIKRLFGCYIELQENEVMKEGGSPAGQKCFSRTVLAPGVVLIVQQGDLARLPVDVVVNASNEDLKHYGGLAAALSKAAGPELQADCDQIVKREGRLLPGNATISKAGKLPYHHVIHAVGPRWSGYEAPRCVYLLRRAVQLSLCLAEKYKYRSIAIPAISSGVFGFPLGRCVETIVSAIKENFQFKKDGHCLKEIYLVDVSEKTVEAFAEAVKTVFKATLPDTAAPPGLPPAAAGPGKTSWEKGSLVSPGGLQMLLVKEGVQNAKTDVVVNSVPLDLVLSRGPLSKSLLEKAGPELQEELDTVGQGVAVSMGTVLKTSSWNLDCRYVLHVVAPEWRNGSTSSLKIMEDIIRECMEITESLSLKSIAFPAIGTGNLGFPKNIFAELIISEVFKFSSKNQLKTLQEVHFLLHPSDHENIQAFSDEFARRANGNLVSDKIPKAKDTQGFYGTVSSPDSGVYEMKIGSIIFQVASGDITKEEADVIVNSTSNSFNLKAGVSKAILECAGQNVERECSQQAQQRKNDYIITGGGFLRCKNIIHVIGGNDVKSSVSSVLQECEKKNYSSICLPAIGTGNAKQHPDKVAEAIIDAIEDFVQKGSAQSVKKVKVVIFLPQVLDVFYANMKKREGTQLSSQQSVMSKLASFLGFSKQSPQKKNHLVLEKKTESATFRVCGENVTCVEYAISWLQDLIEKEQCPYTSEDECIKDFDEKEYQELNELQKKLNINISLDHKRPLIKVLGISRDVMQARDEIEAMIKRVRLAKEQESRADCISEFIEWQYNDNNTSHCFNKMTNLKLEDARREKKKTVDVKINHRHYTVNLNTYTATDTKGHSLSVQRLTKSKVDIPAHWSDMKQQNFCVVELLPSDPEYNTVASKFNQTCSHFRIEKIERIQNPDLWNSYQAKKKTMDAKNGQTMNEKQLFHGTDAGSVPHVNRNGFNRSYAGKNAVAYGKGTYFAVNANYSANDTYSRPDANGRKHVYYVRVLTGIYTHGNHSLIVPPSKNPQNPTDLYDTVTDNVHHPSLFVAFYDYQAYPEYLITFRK
UniProt Q15714: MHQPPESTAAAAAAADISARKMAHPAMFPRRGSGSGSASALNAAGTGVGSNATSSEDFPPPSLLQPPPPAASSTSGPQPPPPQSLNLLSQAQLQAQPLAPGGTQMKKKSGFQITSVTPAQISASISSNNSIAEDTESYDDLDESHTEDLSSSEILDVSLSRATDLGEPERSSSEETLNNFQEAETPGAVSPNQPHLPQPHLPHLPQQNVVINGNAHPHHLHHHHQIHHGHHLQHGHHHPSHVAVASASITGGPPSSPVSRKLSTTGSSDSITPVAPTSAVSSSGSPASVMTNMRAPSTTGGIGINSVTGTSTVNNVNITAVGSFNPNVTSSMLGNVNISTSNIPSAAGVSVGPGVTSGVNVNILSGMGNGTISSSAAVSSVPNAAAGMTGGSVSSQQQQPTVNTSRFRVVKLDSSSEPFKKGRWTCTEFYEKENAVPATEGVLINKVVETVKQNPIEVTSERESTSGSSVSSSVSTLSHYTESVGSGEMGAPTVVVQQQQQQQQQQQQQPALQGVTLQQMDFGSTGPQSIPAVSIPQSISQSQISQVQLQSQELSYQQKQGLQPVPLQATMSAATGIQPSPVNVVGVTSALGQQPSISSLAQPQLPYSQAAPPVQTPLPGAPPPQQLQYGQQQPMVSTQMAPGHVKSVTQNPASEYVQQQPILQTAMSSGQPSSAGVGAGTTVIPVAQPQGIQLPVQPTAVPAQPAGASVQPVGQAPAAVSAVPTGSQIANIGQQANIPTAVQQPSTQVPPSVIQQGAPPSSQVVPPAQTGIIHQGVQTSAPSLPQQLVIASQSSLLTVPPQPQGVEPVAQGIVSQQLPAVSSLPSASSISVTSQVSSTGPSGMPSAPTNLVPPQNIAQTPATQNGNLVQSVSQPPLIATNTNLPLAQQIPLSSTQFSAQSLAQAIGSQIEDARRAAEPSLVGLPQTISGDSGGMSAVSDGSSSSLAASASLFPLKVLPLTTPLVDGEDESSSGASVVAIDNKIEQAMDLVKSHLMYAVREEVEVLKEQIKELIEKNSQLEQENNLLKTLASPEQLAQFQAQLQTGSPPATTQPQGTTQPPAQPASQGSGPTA
UniProt Q16526: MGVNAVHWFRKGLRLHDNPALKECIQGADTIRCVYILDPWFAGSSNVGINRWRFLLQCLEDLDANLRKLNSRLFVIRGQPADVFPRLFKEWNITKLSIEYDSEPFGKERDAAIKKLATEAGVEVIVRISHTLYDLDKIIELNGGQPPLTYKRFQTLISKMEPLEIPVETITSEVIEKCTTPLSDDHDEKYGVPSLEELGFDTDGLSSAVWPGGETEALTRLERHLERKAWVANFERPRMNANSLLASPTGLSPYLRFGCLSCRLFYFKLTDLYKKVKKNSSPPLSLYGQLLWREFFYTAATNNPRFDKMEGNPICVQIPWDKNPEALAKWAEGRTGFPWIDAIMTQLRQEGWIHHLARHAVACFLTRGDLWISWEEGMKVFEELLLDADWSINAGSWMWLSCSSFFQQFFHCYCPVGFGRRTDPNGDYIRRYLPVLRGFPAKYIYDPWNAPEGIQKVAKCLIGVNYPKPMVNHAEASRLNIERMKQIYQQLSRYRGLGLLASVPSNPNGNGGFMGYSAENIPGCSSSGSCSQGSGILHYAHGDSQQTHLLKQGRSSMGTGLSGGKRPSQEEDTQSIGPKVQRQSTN
UniProt Q17RY0: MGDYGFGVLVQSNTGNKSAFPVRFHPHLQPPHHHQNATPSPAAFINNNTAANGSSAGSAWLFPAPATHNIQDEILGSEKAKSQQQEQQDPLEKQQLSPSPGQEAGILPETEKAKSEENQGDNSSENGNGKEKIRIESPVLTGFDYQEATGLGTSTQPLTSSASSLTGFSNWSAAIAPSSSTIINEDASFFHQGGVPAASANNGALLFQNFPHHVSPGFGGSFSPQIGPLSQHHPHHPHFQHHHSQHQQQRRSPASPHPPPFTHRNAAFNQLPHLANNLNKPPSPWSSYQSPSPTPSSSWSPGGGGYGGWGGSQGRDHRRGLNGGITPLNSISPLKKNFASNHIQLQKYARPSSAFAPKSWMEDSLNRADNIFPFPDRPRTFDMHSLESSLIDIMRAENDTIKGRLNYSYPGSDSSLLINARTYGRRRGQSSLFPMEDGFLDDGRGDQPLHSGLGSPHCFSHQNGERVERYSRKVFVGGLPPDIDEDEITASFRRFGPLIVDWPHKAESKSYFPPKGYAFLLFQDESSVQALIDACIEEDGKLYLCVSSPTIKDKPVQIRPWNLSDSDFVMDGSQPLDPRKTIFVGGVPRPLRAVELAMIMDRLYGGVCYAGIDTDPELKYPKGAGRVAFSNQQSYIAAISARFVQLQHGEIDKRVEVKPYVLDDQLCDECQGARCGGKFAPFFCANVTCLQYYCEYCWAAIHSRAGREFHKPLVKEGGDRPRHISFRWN
UniProt Q2VY69: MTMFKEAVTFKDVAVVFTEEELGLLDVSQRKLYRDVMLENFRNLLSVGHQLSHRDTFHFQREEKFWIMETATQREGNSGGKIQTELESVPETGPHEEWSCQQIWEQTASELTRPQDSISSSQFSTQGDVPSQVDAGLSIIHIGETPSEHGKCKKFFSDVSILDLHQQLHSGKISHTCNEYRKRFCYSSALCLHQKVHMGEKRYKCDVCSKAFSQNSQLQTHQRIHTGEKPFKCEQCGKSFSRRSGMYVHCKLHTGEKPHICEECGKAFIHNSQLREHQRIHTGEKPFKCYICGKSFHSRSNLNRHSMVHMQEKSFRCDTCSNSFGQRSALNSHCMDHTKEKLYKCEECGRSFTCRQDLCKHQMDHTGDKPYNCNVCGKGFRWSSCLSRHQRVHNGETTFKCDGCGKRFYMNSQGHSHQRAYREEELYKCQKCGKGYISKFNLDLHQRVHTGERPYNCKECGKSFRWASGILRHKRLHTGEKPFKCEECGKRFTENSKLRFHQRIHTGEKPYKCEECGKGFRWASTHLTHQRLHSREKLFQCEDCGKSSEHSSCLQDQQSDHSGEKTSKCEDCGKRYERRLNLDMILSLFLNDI
UniProt Q15389: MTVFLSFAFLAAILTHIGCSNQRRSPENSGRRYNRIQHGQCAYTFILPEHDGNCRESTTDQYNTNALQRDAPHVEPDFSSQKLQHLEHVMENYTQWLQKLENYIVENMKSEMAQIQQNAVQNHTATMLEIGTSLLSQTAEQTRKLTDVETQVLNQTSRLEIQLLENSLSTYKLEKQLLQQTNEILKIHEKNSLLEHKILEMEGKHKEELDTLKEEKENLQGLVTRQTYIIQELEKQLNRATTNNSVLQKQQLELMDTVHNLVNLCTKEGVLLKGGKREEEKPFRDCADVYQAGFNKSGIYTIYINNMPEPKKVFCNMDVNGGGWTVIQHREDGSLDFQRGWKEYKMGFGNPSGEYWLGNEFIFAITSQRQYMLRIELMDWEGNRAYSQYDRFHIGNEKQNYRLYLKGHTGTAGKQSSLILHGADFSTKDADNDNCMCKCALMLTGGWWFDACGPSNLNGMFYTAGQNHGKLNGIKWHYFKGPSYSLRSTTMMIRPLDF
UniProt Q15843, whole entry: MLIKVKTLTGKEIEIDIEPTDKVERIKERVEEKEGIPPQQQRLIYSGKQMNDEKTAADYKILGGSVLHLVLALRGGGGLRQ
UniProt Q1RMZ1: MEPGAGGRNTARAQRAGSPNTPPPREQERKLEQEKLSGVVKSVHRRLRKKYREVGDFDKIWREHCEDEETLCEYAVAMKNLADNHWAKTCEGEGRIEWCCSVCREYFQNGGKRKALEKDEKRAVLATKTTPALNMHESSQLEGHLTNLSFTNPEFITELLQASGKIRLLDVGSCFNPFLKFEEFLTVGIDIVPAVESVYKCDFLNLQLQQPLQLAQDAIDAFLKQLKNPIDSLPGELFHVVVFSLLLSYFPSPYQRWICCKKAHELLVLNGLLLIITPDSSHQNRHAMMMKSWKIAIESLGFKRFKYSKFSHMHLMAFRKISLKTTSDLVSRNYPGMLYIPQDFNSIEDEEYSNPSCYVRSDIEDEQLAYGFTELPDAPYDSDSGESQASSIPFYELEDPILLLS

The list shows a part of the results. Most values lie at the level of the controls, where differences are scatter.

Compound in the assay: CN[C@@H]1C[C@H]2O[C@@](C)([C@@H]1OC)n1c3ccccc3c3c4c(c5c6ccccc6n2c5c31)C(=O)NC4 [staurosporine]
As to the kind of experiment: log2 fold change of tryptic peptide abundance, ligand vs vehicle (limited proteolysis) (log2 ratio); higher = more trypsin-susceptible (destabilized). The settings on record: ligand concentration: 20 uM; sample: K562 cleared lysate; digestion: 4 min, 22 C (HT-PELSA RT4min, Orbitrap Astral).
Take “C18orf21 (peptide sequence: MLLSQNESQK, peptide start residue: 192) (UniProt Q32NC0)”: the log2 fold change is -0.324.

In the case of “ZNF239 (peptide sequence: VSSQIDTQDSSVKFCK, peptide start residue: 68) (UniProt Q16600)”, the log2 fold change is -1.05.

For “SLC1A5 (peptide sequence: HYRGPAGDATVASEK, peptide start residue: 523) (UniProt Q15758)”, the log2 fold change is 0.391.

Consider “GEN1 (peptide sequence: DLPGIPLQNESR, peptide start residue: 722) (UniProt Q17RS7)”, for which the log2 fold change amounted to 0.171.

“PDCD2 (peptide sequence: CIFLFCCR, peptide start residue: 78) (UniProt Q16342)”: the log2 fold change is -0.11.

For “UniProt Q2TAK8 (peptide sequence: QTLLNQAR, peptide start residue: 471)”, the log2 fold change stood at 0.329.

As for “UGP2 (peptide sequence: ILTTASSHEFEHTKK, peptide start residue: 39) (UniProt Q16851)”, the log2 fold change came to 0.185.

For “SHB (peptide sequence: CAASAAEESGAGK, peptide start residue: 224) (UniProt Q15464)”, the log2 fold change turned out to be 1.52.

For the target “UniProt Q3ZCX4 (peptide sequence: KENLITHQK, peptide start residue: 262)”, the log2 fold change was -0.188.

As for “PMVK (peptide sequence: RQADPGFFCR, peptide start residue: 84) (UniProt Q15126)”, the log2 fold change was 0.458.

For the target “SURF2 (peptide sequence: SELPGDVR, peptide start residue: 2) (UniProt Q15527)”, the log2 fold change came to 0.169.

Take “NONO (peptide sequence: LFVGNLPPDITEEEMRK, peptide start residue: 76) (UniProt Q15233)”: the log2 fold change was -0.399.

Regarding “PARP14 (peptide sequence: SKVDIPAHWSDMK, peptide start residue: 1601) (UniProt Q460N5)”, the log2 fold change stood at 0.971.

In the case of “TSC22D1 (peptide sequence: SHLMYAVREEVEVLKEQIK, peptide start residue: 699) (UniProt Q15714)”, the log2 fold change came out at 0.525.

For “PPA1 (peptide sequence: GISCMNTTLSESPFKCDPDAAR, peptide start residue: 239) (UniProt Q15181)”, the log2 fold change amounted to 0.946.

Turning to “TIMM50 (peptide sequence: LEQEEQQR, peptide start residue: 318) (UniProt Q3ZCQ8)”, the log2 fold change turned out to be 0.432.

For “QPRT (peptide sequence: GAGWTGHVAGTR, peptide start residue: 127) (UniProt Q15274)”, the log2 fold change was found to be 0.335.

Regarding “ZRSR2 (peptide sequence: KLKEQWEEQQR, peptide start residue: 106) (UniProt Q15696)”, the log2 fold change is -0.435.

Regarding “UniProt Q2M3D2 (peptide sequence: VVANLLFQELQPHFNK, peptide start residue: 170)”, the log2 fold change came to 0.22.

On to “LLGL1 (peptide sequence: CLYFADTFLR, peptide start residue: 725) (UniProt Q15334)”, for which the log2 fold change was -0.182.

As to “AAK1 (peptide sequence: LGEGKHPEK, peptide start residue: 719) (UniProt Q2M2I8)”, the log2 fold change worked out at 0.187.

“TAF1C (peptide sequence: ALLKVPLAPPVWTAPTFTHR, peptide start residue: 642) (UniProt Q15572)”: the log2 fold change was -0.604.

Take “TTF1 (peptide sequence: VSGDDFSVPSK, peptide start residue: 402) (UniProt Q15361)”: the log2 fold change amounted to 0.18.

Turning to “UniProt Q3B7T1 (peptide sequence: VLADLHYSK, peptide start residue: 1053)”, the log2 fold change is -0.609.

Take “CRY1 (peptide sequence: SSMGTGLSGGK, peptide start residue: 555) (UniProt Q16526)”: the log2 fold change amounted to 0.141.

As to “UniProt Q15631 (peptide sequence: TKFPAEQYYR, peptide start residue: 77)”, the log2 fold change came to 0.307.

Consider “CPEB4 (peptide sequence: SWMEDSLNR, peptide start residue: 359) (UniProt Q17RY0)”, for which the log2 fold change was -0.225.

For the target “UniProt Q2VY69 (peptide sequence: NLLSVGHQLSHR, peptide start residue: 43)”, the log2 fold change is -0.98.

For “ECM1 (peptide sequence: QLRPEHFQEVGYAAPPSPPLSR, peptide start residue: 32) (UniProt Q16610)”, the log2 fold change was -0.205.

In the case of “UniProt Q15389 (peptide sequence: QTYIIQELEK, peptide start residue: 226)”, the log2 fold change was -0.249.

Take “UniProt Q3LXA3 (peptide sequence: VCSTLLGLEEHLNALDR, peptide start residue: 381)”: the log2 fold change came out at 0.139.

“NEDD8 (peptide sequence: QMNDEKTAADYK, peptide start residue: 49) (UniProt Q15843)”: the log2 fold change was -0.272.

“POLD3 (peptide sequence: EVTNASAAGNKAPGK, peptide start residue: 217) (UniProt Q15054)”: the log2 fold change was -0.224.

In the case of “PCM1 (peptide sequence: LPDEKVELFSK, peptide start residue: 389) (UniProt Q15154)”, the log2 fold change was -0.187.

In the case of “BMT2 (peptide sequence: IEWCCSVCR, peptide start residue: 96) (UniProt Q1RMZ1)”, the log2 fold change was 0.578.

Consider “ZNF74 (peptide sequence: AFTWSTNLLEHR, peptide start residue: 284) (UniProt Q16587)”, for which the log2 fold change was -0.277.

In the case of “UBE2S (peptide sequence: IFHPNVGANGEICVNVLKR, peptide start residue: 83) (UniProt Q16763)”, the log2 fold change is -0.196.
